For 2 molecules, binding results are on record in article PMC4358870.

Amino acid sequences for entries named in this document (tags omitted).
UniProt P49841: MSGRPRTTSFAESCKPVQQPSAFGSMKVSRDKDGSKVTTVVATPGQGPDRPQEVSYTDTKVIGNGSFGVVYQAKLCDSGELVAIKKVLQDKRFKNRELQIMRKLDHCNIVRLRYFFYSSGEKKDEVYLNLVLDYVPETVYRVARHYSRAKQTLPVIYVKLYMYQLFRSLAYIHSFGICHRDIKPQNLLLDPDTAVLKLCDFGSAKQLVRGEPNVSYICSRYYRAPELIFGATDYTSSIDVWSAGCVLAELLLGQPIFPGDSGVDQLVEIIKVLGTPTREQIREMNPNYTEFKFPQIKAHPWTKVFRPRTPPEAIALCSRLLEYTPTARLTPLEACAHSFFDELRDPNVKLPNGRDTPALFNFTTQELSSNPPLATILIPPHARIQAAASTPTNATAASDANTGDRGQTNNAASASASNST

Experiment [1] deals with T1, Astrocyte elevated gene-1 (AEG-1) (human) (UniProt Q86UE4).
T1 sequence: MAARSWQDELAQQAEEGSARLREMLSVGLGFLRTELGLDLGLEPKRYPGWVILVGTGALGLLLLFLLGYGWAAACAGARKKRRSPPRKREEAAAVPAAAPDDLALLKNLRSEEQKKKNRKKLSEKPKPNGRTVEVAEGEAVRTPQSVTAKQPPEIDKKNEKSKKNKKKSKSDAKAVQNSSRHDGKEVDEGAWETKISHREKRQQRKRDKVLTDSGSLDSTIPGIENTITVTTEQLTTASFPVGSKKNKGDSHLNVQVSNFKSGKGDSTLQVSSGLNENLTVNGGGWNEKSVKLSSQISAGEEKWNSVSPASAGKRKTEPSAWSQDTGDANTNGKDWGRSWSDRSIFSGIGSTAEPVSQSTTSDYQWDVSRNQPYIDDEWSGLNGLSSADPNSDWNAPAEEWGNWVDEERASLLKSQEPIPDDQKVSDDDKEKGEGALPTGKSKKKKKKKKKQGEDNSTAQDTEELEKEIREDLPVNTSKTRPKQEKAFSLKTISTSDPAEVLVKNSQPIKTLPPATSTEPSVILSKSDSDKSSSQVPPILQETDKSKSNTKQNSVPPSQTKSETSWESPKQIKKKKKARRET
Description: co-IP; AEG-1 complexes from lysates of transfected Slu-01 cells, immunoblot for GSK-3β and CKIδ; 4°C, 1 mg total protein, precleared; species-matched immunoglobulin as control. In general terms: Immunoblotting shows a protein as a band on a membrane.

For experiment [2], the target named is glycogen synthase kinase 3β (GSK-3β) (human (endogenous in Slu-01)) (UniProt P49841). Description: co-IP; GSK-3β immunoprecipitated from lysates of Slu-01 cells overexpressing AEG-1, immunoblot; 4°C, 1 mg total protein, precleared; species-matched immunoglobulin as control.

These are yes or no findings as the source states them, for the method shown. In cells and extracts the contact can be indirect. Some entries that bind do so weakly or less than the wild type.

For the molecule “glycogen synthase kinase 3β (GSK-3β) (from UniProt P49841 1-420)”, in experiment [1], the binding result is “binds”.

B1: Astrocyte elevated gene-1 (AEG-1) (protein, UniProt Q86UE4 1-582)
chain: T1 sequence
With B1, in experiment [2], the binding entry was “binds”.
